Results are given in words; binding and its absence hold for the method and conditions named. In cells and extracts the contact can be indirect. Some binding calls cover weakened binding; strength is not graded here.

By UniProt entry, the sequences of proteins in these tests, tags left out. Residues count along the entry.
UniProt P21860, residues 20-1342: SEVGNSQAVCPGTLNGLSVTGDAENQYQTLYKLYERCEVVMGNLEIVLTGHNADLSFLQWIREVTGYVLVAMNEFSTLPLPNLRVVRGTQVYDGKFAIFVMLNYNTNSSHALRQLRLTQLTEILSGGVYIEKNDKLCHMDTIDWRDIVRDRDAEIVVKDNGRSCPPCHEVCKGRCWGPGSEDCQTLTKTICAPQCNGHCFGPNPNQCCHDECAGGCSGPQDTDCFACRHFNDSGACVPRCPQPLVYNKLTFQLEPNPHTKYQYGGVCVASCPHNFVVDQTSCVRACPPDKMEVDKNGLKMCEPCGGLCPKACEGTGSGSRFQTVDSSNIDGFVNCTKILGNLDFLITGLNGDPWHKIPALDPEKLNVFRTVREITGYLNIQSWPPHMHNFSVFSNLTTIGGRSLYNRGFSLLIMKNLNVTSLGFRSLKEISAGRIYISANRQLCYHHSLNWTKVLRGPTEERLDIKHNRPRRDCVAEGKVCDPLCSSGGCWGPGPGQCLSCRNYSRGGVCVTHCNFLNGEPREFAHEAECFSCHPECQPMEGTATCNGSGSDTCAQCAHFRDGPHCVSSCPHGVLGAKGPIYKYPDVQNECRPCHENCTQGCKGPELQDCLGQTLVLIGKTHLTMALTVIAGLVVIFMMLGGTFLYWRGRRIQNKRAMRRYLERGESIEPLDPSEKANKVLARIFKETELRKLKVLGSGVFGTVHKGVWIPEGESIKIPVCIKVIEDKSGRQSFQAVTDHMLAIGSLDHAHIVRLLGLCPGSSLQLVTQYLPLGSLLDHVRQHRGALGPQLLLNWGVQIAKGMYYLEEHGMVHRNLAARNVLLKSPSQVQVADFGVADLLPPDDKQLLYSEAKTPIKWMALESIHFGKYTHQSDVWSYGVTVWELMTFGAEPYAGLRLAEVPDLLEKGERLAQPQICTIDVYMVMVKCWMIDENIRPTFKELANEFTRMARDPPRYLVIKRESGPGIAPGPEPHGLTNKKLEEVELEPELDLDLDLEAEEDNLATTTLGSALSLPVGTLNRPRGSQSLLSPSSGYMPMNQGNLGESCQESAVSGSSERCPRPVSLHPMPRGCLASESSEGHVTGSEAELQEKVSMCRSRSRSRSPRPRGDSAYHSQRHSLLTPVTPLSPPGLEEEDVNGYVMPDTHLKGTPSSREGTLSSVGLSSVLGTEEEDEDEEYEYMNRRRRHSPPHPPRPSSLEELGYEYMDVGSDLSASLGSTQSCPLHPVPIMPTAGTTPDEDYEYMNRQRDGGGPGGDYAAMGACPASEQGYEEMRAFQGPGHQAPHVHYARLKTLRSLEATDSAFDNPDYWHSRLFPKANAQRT

Assay [1] has as its target HER3 (ErbB3) receptor (human (endogenous in BxPC3)) (UniProt P21860). Briefly: co-IP; BxPC3 cells incubated with medium, NRG1 (100 ng/ml) and/or 9F7-F11 (50 ug/ml) for various times; 2 mg lysate in CHAPS buffer precipitated with anti-HER3 antibody 2F12 (C-terminal tail) and Dynabeads at 4 C; western blot for ITCH and USP8.
Assay [2] concerns the target TRAIL-R2/DR5 (human (endogenous in BxPC3)), O14763. The assay can be described thus: co-IP; BxPC3 cells incubated with 9F7-F11 (24 h to 120 h); 2 mg lysate precipitated overnight at 4 C with Dynabeads cross-linked with anti-DR5 antibody D4E7, ten washes in CHAPS buffer; western blot for caspase-8 and FADD. To be noted: remark: other sources report otherwise.

B1: Ubiquitin-specific peptidase 8 (USP8) (enzyme, UniProt P40818 1-1118)
chain: MPAVASVPKELYLSSSLKDLNKKTEVKPEKISTKSYVHSALKIFKTAEECRLDRDEERAYVLYMKYVTVYNLIKKRPDFKQQQDYFHSILGPGNIKKAVEEAERLSESLKLRYEEAEVRKKLEEKDRQEEAQRLQQKRQETGREDGGTLAKGSLENVLDSKDKTQKSNGEKNEKCETKEKGAITAKELYTMMTDKNISLIIMDARRMQDYQDSCILHSLSVPEEAISPGVTASWIEAHLPDDSKDTWKKRGNVEYVVLLDWFSSAKDLQIGTTLRSLKDALFKWESKTVLRNEPLVLEGGYENWLLCYPQYTTNAKVTPPPRRQNEEVSISLDFTYPSLEESIPSKPAAQTPPASIEVDENIELISGQNERMGPLNISTPVEPVAASKSDVSPIIQPVPSIKNVPQIDRTKKPAVKLPEEHRIKSESTNHEQQSPQSGKVIPDRSTKPVVFSPTLMLTDEEKARIHAETALLMEKNKQEKELRERQQEEQKEKLRKEEQEQKAKKKQEAEENEITEKQQKAKEEMEKKESEQAKKEDKETSAKRGKEITGVKRQSKSEHETSDAKKSVEDRGKRCPTPEIQKKSTGDVPHTSVTGDSGSGKPFKIKGQPESGILRTGTFREDTDDTERNKAQREPLTRARSEEMGRIVPGLPSGWAKFLDPITGTFRYYHSPTNTVHMYPPEMAPSSAPPSTPPTHKAKPQIPAERDREPSKLKRSYSSPDITQAIQEEEKRKPTVTPTVNRENKPTCYPKAEISRLSASQIRNLNPVFGGSGPALTGLRNLGNTCYMNSILQCLCNAPHLADYFNRNCYQDDINRSNLLGHKGEVAEEFGIIMKALWTGQYRYISPKDFKITIGKINDQFAGYSQQDSQELLLFLMDGLHEDLNKADNRKRYKEENNDHLDDFKAAEHAWQKHKQLNESIIVALFQGQFKSTVQCLTCHKKSRTFEAFMYLSLPLASTSKCTLQDCLRLFSKEEKLTDNNRFYCSHCRARRDSLKKIEIWKLPPVLLVHLKRFSYDGRWKQKLQTSVDFPLENLDLSQYVIGPKNNLKKYNLFSVSNHYGGLDGGHYTAYCKNAARQRWFKFDDHEVSDISVSSVKSSAAYILFYTSLGPRVTDVAT
Regarding B1, the binding result in assay [1] is “binds”.

B2: pro-caspase 8, Q14790 1-479 (enzyme)
chain: MDFSRNLYDIGEQLDSEDLASLKFLSLDYIPQRKQEPIKDALMLFQRLQEKRMLEESNLSFLKELLFRINRLDLLITYLNTRKEEMERELQTPGRAQISAYRVMLYQISEEVSRSELRSFKFLLQEEISKCKLDDDMNLLDIFIEMEKRVILGEGKLDILKRVCAQINKSLLKIINDYEEFSKERSSSLEGSPDEFSNGEELCGVMTISDSPREQDSESQTLDKVYQMKSKPRGYCLIINNHNFAKAREKVPKLHSIRDRNGTHLDAGALTTTFEELHFEIKPHDDCTVEQIYEILKIYQLMDHSNMDCFICCILSHGDKGIIYGTDGQEAPIYELTSQFTGLKCPSLAGKPKVFFIQACQGDNYQKGIPVETDSEEQPYLEMDLSSPQTRYIPDEADFLLGMATVNNCVSYRNPAEGTWYIQSLCQSLRERCPRGDDILTILTEVNYEVSNKDDKKNMGKQMPQPTFTLRKKLVFPSD
Regarding B2, the binding result in assay [2] is reported as “binds”.
